Laboratory results as given in patent publication US6413937B1, “Combinations for use in increasing the potency of a substrate for multidrug resistance related protein” (Dublin City University and Enterprise Ireland, priority 1996, dated 2002).

Protein sequences, listed by entry. Tags and fused reporters are not part of them. Lines headed by an entry give the natural chain unless they say otherwise; changes in a name come on top.
UniProt P33527: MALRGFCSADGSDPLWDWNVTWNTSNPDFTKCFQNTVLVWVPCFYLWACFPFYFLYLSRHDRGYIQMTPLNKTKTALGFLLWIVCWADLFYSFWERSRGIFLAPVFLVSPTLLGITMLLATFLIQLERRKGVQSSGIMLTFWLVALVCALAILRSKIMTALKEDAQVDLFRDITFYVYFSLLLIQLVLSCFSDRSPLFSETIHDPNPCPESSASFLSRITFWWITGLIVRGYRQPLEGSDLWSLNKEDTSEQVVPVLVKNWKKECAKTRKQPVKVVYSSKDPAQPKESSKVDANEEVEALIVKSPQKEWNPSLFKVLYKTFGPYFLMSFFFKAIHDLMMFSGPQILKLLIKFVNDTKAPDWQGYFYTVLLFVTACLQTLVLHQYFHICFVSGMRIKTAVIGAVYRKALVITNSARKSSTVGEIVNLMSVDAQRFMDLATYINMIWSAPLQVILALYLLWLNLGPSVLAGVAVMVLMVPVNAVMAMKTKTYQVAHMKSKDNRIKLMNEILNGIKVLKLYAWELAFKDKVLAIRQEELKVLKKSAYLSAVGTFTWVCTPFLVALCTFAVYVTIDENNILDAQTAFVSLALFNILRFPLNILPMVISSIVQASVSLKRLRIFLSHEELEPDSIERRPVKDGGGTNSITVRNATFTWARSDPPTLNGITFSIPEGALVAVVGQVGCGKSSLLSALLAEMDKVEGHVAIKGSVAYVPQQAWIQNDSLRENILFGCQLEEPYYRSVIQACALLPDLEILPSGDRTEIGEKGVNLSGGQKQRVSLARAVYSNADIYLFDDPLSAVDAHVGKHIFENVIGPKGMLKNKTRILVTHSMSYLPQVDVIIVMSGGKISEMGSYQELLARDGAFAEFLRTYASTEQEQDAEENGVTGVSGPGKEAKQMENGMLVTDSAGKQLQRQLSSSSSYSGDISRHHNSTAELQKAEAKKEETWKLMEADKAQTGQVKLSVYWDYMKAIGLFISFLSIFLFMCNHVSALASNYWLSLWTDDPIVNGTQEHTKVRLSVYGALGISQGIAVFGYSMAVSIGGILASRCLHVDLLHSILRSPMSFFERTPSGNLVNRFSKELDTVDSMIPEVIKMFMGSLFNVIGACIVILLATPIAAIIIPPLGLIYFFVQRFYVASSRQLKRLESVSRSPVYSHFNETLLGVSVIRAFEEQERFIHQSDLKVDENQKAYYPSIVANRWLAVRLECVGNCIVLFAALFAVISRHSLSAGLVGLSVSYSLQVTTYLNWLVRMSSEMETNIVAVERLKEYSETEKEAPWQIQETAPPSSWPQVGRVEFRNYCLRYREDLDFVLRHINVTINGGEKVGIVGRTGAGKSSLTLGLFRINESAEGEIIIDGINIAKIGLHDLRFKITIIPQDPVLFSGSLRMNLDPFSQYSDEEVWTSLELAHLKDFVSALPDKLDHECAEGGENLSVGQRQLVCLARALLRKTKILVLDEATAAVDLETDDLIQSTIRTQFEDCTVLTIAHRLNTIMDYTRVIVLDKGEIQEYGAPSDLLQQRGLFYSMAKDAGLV

Target: T1, MRP pump (Homo sapiens, UniProt P33527)
T1 construct: inside-out plasma membrane vesicles prepared from HL60ADR cells; endogenous in cells; host or cells: HL60ADR cells (plasma membrane vesicles)
Assay: ATP-dependent transport of [3H]LTC4 into inside-out plasma membrane vesicles from HL60ADR cells
Type: biochemical
Settings: 2.2 mM
Experimental: To determine if the NSAIDs were acting directly on the MRP pump the uptake of [^3H]LTC4 into inside-out plasma membrane vesicles prepared from HL60ADR cells was examined using a rapid filtration procedure (Ishikawa,T., et al. (1994); J. Biol. Chem. 269 (46); 29085-29093). ATP-dependent transport of [^3H]LTC4 into the membrane vesicles was measured by a rapid filtration method using a Millipore sampling manifold. The membrane vesicles were thawed at 37° C. before use and kept on ice. The reaction components consisted of 0.25 M sucrose/10 mM Tris.HCl pH 7.4/1 mM ATP/10 mM MgCl2/10 mM creatine phosphate/ 110 μg/ml creatine kinase and 10 nM [^3H]LTC4, with 50 μg of the inside-out vesicle preparation, in a final volume of 110 μl. This suspension was incubated at 37° C., with gentle mixing, and aliquots, 20 μl, were taken at the indicated points. Those aliquots were diluted in 1 ml of ice-cold incubation buffer before being applied to 0.22 μm Millipore GSWP nitrocellulose filters, pre-soaked in ice-cold incubation buffer, under suction. The filters were subsequently washed with 3 ml ice-cold incubation buffer, and absorbed radioactivity was measured using a scintillation counter (Beckman). In control experiments ATP was replaced with 5μ-AMP to determine the ATP-dependent transport.

An inhibition at 2200 µM of 15.5% was found for COc1ccc2cc([C@H](C)C(=O)O)ccc2c1 [Naproxen] in this work.
